Data as given in the supplement of paper PMC6445147.
Single values of this data set are uncertain.

B1: human tRNA-Pro; a variant is named by its letters at N, in order (parent)
chain: GGCTCGTTGGTCTAGNGGTATGATTCTCGCTTAGGGTGCGAGAGGTCCCGGGTTCNNATCCCGGACGAGCCC

What was measured:
[1] = variants of: B1; experiment: tRNA Pol-III promoter activity, log2 (circRNA frequency / plasmid DNA frequency) (log2 ratio); higher = stronger promoter activity; settings: HEK293T; construct: no Pol-II promoter ((-)CMV library)
[2] = variants of: B1; experiment: tRNA 3' processing efficiency (processed reads / all reads, maximum-likelihood estimate) (fraction); higher = more efficient 3' processing; settings: HEK293T; construct: no Pol-II promoter ((-)CMV library)
[3] = variants of: B1; experiment: tRNA 5' processing efficiency (processed reads / all reads, maximum-likelihood estimate) (fraction); higher = more efficient 5' processing; settings: HEK293T; construct: CMV Pol-II promoter ((+)CMV library, decapped)

Row | Variant | tRNA Pol-III promoter activity (log2) [1] | tRNA 3' processing efficiency [2] | tRNA 5' processing efficiency [3]
1 | TAA A14T T53A | 2.31 | 0.22 | 
2 | CAA A14G | 1.02 | 0.44 | 
3 | TAA A14C T19G T59G | 8.11 | 0.17 | 
4 | GAA A14T A20C A58G T59G | 7.26 | 0.3 | 
5 | GAA A14C G15C T59C | 3.93 | 0.2 | 
6 | GAA A14T G17T T59C | 4.44 | 0.3 | 
7 | GAA A14T A20G | -0.192 | 0.26 | 
8 | GAA A14T A20T | 2.37 | 0.44 | 
9 | GAA A14G A20G C55G | 3.36 | 0.25 | 
10 | CAA A14T T53A | 5.31 | 0.14 | 
11 | CAA A14T T53G | 0.559 | 0.33 | 
12 | GAA A14C G18T C55T | 3.18 | 0.22 | 
13 | GAA A14G G15T T59A | 2.24 | 0.5 | 
14 | GAA A14T G15T | -0.414 | 0.33 | 0.25
15 | GAA A14T G15A | -0.335 | 0.4 | 
16 | GAA A14T T19A T53A | 4.3 | 0.36 | 
17 | GAA A14T T59A | 2.55 | 0.39 | 
18 | GAA A14T G18A T59C | 3.34 | 0.7 | 
19 | GAA A14T G17A A58G | 2.24 | 0.25 | 
20 | GAA A14T G17A A58C | 3.34 | 0.17 | 

Row | Variant | tRNA Pol-III promoter activity (log2) [1] | tRNA 3' processing efficiency [2] | tRNA 5' processing efficiency [3]
21 | GAA A14G G15T T54C C55T | 5.67 | 0.4 | 
22 | CAA A14G G15T G17T T59G | 8.2 | 0.19 | 
23 | GAA A14C G18T A58T | 0.813 | 0.25 | 
24 | GAA A14G A20T A58C T59C | 6.75 | 0.14 | 
25 | GAA A14C G18A C55G | 5.93 | 0.67 | 
26 | GAA A14C G18A C55T | 3.71 | 0.17 | 
27 | GAA A14G C55T A58T | 1.44 | 0.26 | 
28 | CAA A14T T19G | 3.68 | 0.15 | 
29 | GAA A14T T19A A58T T59A | 5.93 | 0.25 | 
30 | GAA A14T T19A A58T T59G | 4.26 | 0.2 | 
31 | TAA A14G T54A | 2.93 | 0.17 | 
32 | GAA A14T A20T A58G T59C | 4.94 | 0.62 | 
33 | GAA A14T G15C T19A | 3.93 | 0.5 | 
34 | AAA A14T T19C | 3.13 | 0.62 | 
35 | GAA A14G G18C T19C | 4.93 | 0.25 | 
36 | TAA A14T C55T A58C | 4.84 | 0.29 | 
37 | GAA A14T A58T T59G | 6.02 | 0.5 | 
38 | GAA A14T A58T T59C | 3.62 | 0.17 | 
39 | GAA A14T G18C T54A A58T | 5.94 | 0.25 | 
40 | GAA A14G G18T | 0.379 | 0.5 | 

Rewritten comma-delimited: entries from further up
Row,Variant,tRNA Pol-III promoter activity (log2) [1],tRNA 3' processing efficiency [2],tRNA 5' processing efficiency [3]
21,GAA A14G G15T T54C C55T,5.67,0.4,
23,GAA A14C G18T A58T,0.813,0.25,
24,GAA A14G A20T A58C T59C,6.75,0.14,
25,GAA A14C G18A C55G,5.93,0.67,
27,GAA A14G C55T A58T,1.44,0.26,
28,CAA A14T T19G,3.68,0.15,
29,GAA A14T T19A A58T T59A,5.93,0.25,
30,GAA A14T T19A A58T T59G,4.26,0.2,
31,TAA A14G T54A,2.93,0.17,
32,GAA A14T A20T A58G T59C,4.94,0.62,
33,GAA A14T G15C T19A,3.93,0.5,
35,GAA A14G G18C T19C,4.93,0.25,
36,TAA A14T C55T A58C,4.84,0.29,
37,GAA A14T A58T T59G,6.02,0.5,
38,GAA A14T A58T T59C,3.62,0.17,
39,GAA A14T G18C T54A A58T,5.94,0.25,
40,GAA A14G G18T,0.379,0.5,

Continuation:

Row | Variant | tRNA Pol-III promoter activity (log2) [1] | tRNA 3' processing efficiency [2] | tRNA 5' processing efficiency [3]
41 | GAA A14G G17A T19A C55T | 4.93 | 0.33 | 
42 | GAA A14G A20C A58C | 7.7 | 0.93 | 
43 | GAA A14G T19G A58T | 2.77 | 0.4 | 
44 | GAA A14C G18T T19C | 3.36 | 0.25 | 
45 | GAA A14T A20T T53A | 2.28 | 0.17 | 
46 | GAA A14T A20T T53G | 2.43 | 0.5 | 
47 | GAA A14G G18C A58C | 4.16 | 0.43 | 
48 | GAA A14T T53C | 1.11 | 0.2 | 
49 | GAA A14T T53G | 1.06 | 0.31 | 
50 | GAA A14T T53A | 2.48 | 0.52 | 
51 | GAA A14T T19G T59G | 5.16 | 0.29 | 
52 | GAA A14T T19G T59C | 8.68 | 0.56 | 
53 | GAA A14G G15T A58C | 4.67 | 0.88 | 
54 | GAA A14G G18T T59C | 5.45 | 0.13 | 
55 | GAA A14T A58G | 0.739 | 0.32 | 
56 | GAA A14T A58C | -0.227 | 0.46 | 
57 | GAA A14T A58T | 0.793 | 0.37 | 0.33
58 | GAA A14G A58T T59G | 3.07 | 0.17 | 
